Publication PMC7819943, “Rice protein-binding microarrays: a tool to detect cis-acting elements near promoter regions in rice”
The other results are listed elsewhere or left out.

The chains behind the UniProt entries cited, without tags or fusion partners.
UniProt Q0JBA9, entry or part of it: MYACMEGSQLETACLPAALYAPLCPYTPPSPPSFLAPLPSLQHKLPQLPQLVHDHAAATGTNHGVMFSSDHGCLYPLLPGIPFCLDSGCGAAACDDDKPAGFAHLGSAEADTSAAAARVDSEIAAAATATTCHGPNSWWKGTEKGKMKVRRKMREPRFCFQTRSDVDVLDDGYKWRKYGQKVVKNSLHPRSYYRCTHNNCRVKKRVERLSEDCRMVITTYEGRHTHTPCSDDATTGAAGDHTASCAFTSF

Target: OsWRKY34 (Oryza sativa, UniProt Q0JBA9 1-250)
Assay: protein-binding microarray (RPBM); PBS, 2% BSA, 51.3 ng/ul salmon testes DNA, 50 uM zinc acetate, 200 nM TF, 25 C, 1 h; high values mean tight binding
Settings: protein: recombinant; tags: N-terminal polyhistidine and DsRed monomer fusion (pET32a); label: CyDye5-dUTP incorporated in the synthesized complementary strand; 3' TTTTT single-stranded linker to array surface; dsDNA, one strand shown
In short: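 Transcription factors, each fused N-terminally to a polyhistidine tag and DsRed, were expressed in E. coli BL21-CodonPlus and purified on Ni–NTA. A custom Agilent array was made double-stranded by primer extension with Cy5-dUTP and blocked with 2% BSA. It was incubated with 200 nM protein in PBS, 2% BSA, salmon testes DNA and 50 µM zinc acetate at 25 °C for 1 h, then washed. The binding signal is per-feature fluorescence intensity (arbitrary units) read on an Axon 4000B scanner.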

Sequence	binding signal
CCTTGGCAGTGGGGCGGAGGGGCGGTGTCGGTGCTGGCGGCGGAGTCACCTAGTGCAG	13800 fluorescence intensity (a.u.)
AAGAGAGAGGCTGATGTGGATTGTCTGACATGTGGGGCCCCGGAGTCACCTAGTGCAG	9650 fluorescence intensity (a.u.)
ATATGATTTCTGACTCTGTTTTACCATTGTTTTGTTTGTCCGGAGTCACCTAGTGCAG	11000 fluorescence intensity (a.u.)
GCCGCACTTTTTTTCTTTCCGGCTTGTGGGCCCCACAAATCGGAGTCACCTAGTGCAG	12000 fluorescence intensity (a.u.)
GCTGTTTGTTTGTTTTGGCTTAGACTTTTCGACTTATAAGCGGAGTCACCTAGTGCAG	10800 fluorescence intensity (a.u.)
ACGGTTGACTTATTCTTTACATGATGAAAAATCGTGTCTACGGAGTCACCTAGTGCAG	11700 fluorescence intensity (a.u.)
ATCTCTTTCATCCGATTACTGTGTTTTTTCTGTGGTCCAACGGAGTCACCTAGTGCAG	8410 fluorescence intensity (a.u.)
ATAGCATATTAGCACCACGTCTCGCCCGTTGTAAACAACTCGGAGTCACCTAGTGCAG	8050 fluorescence intensity (a.u.)
TTTCTTCTCCACCGACAGCCGCCGTTGCTCGGTTCTCTTCCGGAGTCACCTAGTGCAG	11600 fluorescence intensity (a.u.)
AATTGGTTCTTTCTCTGGACACACGATTAACTACGTACGACGGAGTCACCTAGTGCAG	8420 fluorescence intensity (a.u.)
TGAGAAACTTCTTTCAGCTGAAGCTACCGTCATAGGTACACGGAGTCACCTAGTGCAG	8070 fluorescence intensity (a.u.)
TATTTAATCCCTTTGCATATTTTTTATTAAAATCCTAAATCGGAGTCACCTAGTGCAG	8400 fluorescence intensity (a.u.)
GGAGCCACGTGAGCACTACTTTTCTTTCTTTGTTTTTCTCCGGAGTCACCTAGTGCAG	8660 fluorescence intensity (a.u.)
CAAACGTTCGATGTGGCAGGGTAAAAAATTTTGGGTTGGGCGGAGTCACCTAGTGCAG	8100 fluorescence intensity (a.u.)
TGTTCTGGTTCGGATCTGAGCGGGTGTTGGGTGTTTTCAACGGAGTCACCTAGTGCAG	9230 fluorescence intensity (a.u.)
CACTAAACTACCTATACTATCTCTACTATCACTTGGCTTTCGGAGTCACCTAGTGCAG	8610 fluorescence intensity (a.u.)
TATATCTATCCTGGTGTAGTACATCCCTGTAGTGTAGGGGCGGAGTCACCTAGTGCAG	9560 fluorescence intensity (a.u.)
CAGAATTAGATTTCCCCGGGCCCACCCCTTTTCCATGGCCCGGAGTCACCTAGTGCAG	8690 fluorescence intensity (a.u.)
CGCTGTCATTATCCGATTCGATTAACCCCGCGCGATCTCTCGGAGTCACCTAGTGCAG	9370 fluorescence intensity (a.u.)
CTGGTGCATGTCCACGTTCAGCGTACTACCTCTCAACTTGCGGAGTCACCTAGTGCAG	10100 fluorescence intensity (a.u.)
TCTGCTCCACCTCCGCGGCGGCCGCCGCCACCCACCTCCACGGAGTCACCTAGTGCAG	8400 fluorescence intensity (a.u.)
TTCGGCGACAACCCCTTCGATCTAATTTTTGGATATATTTCGGAGTCACCTAGTGCAG	8050 fluorescence intensity (a.u.)
AATGTTGTTTATTTATCTTGGTTTTCACTTTTCTAGTTTACGGAGTCACCTAGTGCAG	8960 fluorescence intensity (a.u.)
CTCATGTCGGTTTTTTCTCCGCCCGGTTAATCATTTCCCACGGAGTCACCTAGTGCAG	10400 fluorescence intensity (a.u.)
TCCTTCATCCTCATGTTTAATTTGCTCGGAGTGTCAAAACCGGAGTCACCTAGTGCAG	8340 fluorescence intensity (a.u.)
TCCCTTTATTCGATTGCATCGGTCATTTTTTCTGCCCATGCGGAGTCACCTAGTGCAG	8490 fluorescence intensity (a.u.)
GTATTGGGGATGGGAGAATGGGAGCTGGGAGGGCGGCCGACGGAGTCACCTAGTGCAG	12500 fluorescence intensity (a.u.)

Sequence	binding signal
CTTCGCCTTCGCTTCCGCTTCCGATTGCCGTTTCCGCTTTCGGAGTCACCTAGTGCAG	12800 fluorescence intensity (a.u.)
ACTCGCCGCGATCCCCGCCGTTTTATTTTCCAAACCAGCACGGAGTCACCTAGTGCAG	8740 fluorescence intensity (a.u.)
CCTATCATCCTATCCCCGACCTCCCTTGAAACATTTTTTACGGAGTCACCTAGTGCAG	8110 fluorescence intensity (a.u.)
TTAGTTTTCTCTTAGTTTGTCCATCTTTGTCGGTTTGCGCCGGAGTCACCTAGTGCAG	9470 fluorescence intensity (a.u.)
TCCGCTGGAGCCCGCCCGACCTCCGCCTCTCCTACCTTCTCGGAGTCACCTAGTGCAG	9240 fluorescence intensity (a.u.)
AGTGATGTGTGTGCGTATGCGTTTACCATGTAATAAAAAACGGAGTCACCTAGTGCAG	8630 fluorescence intensity (a.u.)
GACTTTTTTTTTTTGTCAAACTTTTTTATATTTGATCAAACGGAGTCACCTAGTGCAG	9250 fluorescence intensity (a.u.)
GGTCGCACAAAAACACGACCGCGCGCACCACCACCATTTCCGGAGTCACCTAGTGCAG	8160 fluorescence intensity (a.u.)
GGCCGGCGCCGTTTTCTTTTCCCCTACGCAGCCGTCGCCGCGGAGTCACCTAGTGCAG	8760 fluorescence intensity (a.u.)
CACTTCCTTGCCTTCTCATCGAGTTTAATTAGAATCCTTACGGAGTCACCTAGTGCAG	8640 fluorescence intensity (a.u.)
GCACTATTCATGTTTAACGGTTGACGGTTCGTCTTATTTGCGGAGTCACCTAGTGCAG	8920 fluorescence intensity (a.u.)
TATATTATATTTTCGTACTGGTTTTATTTTTTATAGGACGCGGAGTCACCTAGTGCAG	8520 fluorescence intensity (a.u.)
AAGCTTACACAGTTTCCAACAACTCTTTTCTTTTCAGTTACGGAGTCACCTAGTGCAG	8780 fluorescence intensity (a.u.)
GTCGCTTGTAGTACTACTCGTTTCAAAGAGCCTGTTTGCTCGGAGTCACCTAGTGCAG	10400 fluorescence intensity (a.u.)
TATTCCGTTTCGCTTATTCAATTCATCTATACTAATATAACGGAGTCACCTAGTGCAG	8650 fluorescence intensity (a.u.)
GGTTGCTTGCTTGCTTGGCCATCTGGAACAGTCAGTGTCTCGGAGTCACCTAGTGCAG	8360 fluorescence intensity (a.u.)
TTAAGATATAGGGTTAAGGTTGAGGCGGGGTAGAAGAAAGCGGAGTCACCTAGTGCAG	9330 fluorescence intensity (a.u.)
AATTCTCCCGTCGTCTCCTTCCTTGCGCCAAGAAAGACGACGGAGTCACCTAGTGCAG	9610 fluorescence intensity (a.u.)
TACGTAACTGTTGGGCAGTGCTACACCTTTTGCTTTGCTTCGGAGTCACCTAGTGCAG	9770 fluorescence intensity (a.u.)
GGTTGATGATGTGAGTCCGATTGTATTTTTTTTGTTCACCCGGAGTCACCTAGTGCAG	11000 fluorescence intensity (a.u.)
AATATATTATTTTAAATCATTCCTGTTTACATATAGCCATCGGAGTCACCTAGTGCAG	8590 fluorescence intensity (a.u.)
CACGCTTACTTTTTTTGTGACTAACATGCTTACTTCTCAACGGAGTCACCTAGTGCAG	12400 fluorescence intensity (a.u.)
TATGAAGCTGTCAGCTCTACTTCTTCTTTGGTGATTCTAACGGAGTCACCTAGTGCAG	8550 fluorescence intensity (a.u.)
GTTGGTAGATTGTACTGTATATGTTTTCTCACAAAGTATACGGAGTCACCTAGTGCAG	10200 fluorescence intensity (a.u.)
AATCTACAAGATATATAACTAGATGTGTGGTGGGTTGAAACGGAGTCACCTAGTGCAG	8280 fluorescence intensity (a.u.)
AAGAGCGGCGGGGAGAAGTTGTCGTACATGACGGTGGTACCGGAGTCACCTAGTGCAG	8040 fluorescence intensity (a.u.)
AGTCTCTTATGACCAGCCGTTACTGGGTGATTGCTTTCTACGGAGTCACCTAGTGCAG	8120 fluorescence intensity (a.u.)

4 entries from above, bar-delimited.
Sequence | binding signal
TATATTATATTTTCGTACTGGTTTTATTTTTTATAGGACGCGGAGTCACCTAGTGCAG | 8520 fluorescence intensity (a.u.)
AAGCTTACACAGTTTCCAACAACTCTTTTCTTTTCAGTTACGGAGTCACCTAGTGCAG | 8780 fluorescence intensity (a.u.)
GTCGCTTGTAGTACTACTCGTTTCAAAGAGCCTGTTTGCTCGGAGTCACCTAGTGCAG | 10400 fluorescence intensity (a.u.)
TATTCCGTTTCGCTTATTCAATTCATCTATACTAATATAACGGAGTCACCTAGTGCAG | 8650 fluorescence intensity (a.u.)
